These are literature values, as cited in patent US20080131503A1 (priority 2005, published 2008).

The structures appear in SMILES notation.

For data set [1] the following is noted: at pH>6.
In data set [2] the test system is plasma lipids (total-C, LDL-C, triglycerides, HDL).
[3] abbreviates: evening drug administration compared with morning.

As for `CC(C)c1c(C(=O)Nc2ccccc2)c(-c2ccccc2)c(-c2ccc(F)cc2)n1CC[C@@H](O)C[C@@H](O)CC(=O)O` [Atorvastatin], in data set [1], the “Hydroxy acid form - lactone form equilibrium” value is “greatly favors the hydroxy acid form”. Further, under setting [3], the “Plasma concentration lower, AUC” value was “approximately 30%” and the “Plasma concentration lower, Cmax” value was “approximately 30%”. Also, where the note is “with food”, the “Decrease of extent of drug absorption by food, as assessed by AUC” value was ~9% and the “Decrease of rate of drug absorption by food, as assessed by Cmax” value is listed as “approximately 25%”. Also, the “LDL-C reduction by time of day of drug administration” value in data set [2] (evening versus morning administration) is on record as “the same”. Further, the “LDL-C reduction given with or without food” value in data set [2] (with or without food) is on record as “similar”.
